{"source": "patent US20170321218A1", "about": "“FACTOR XIA-SPECIFIC APTAMERS” (CANADIAN BLOOD SERVICES, published 2017)", "note": "A negative result means that nothing was seen under these conditions. For some assays here: A weaker result is weaker than the reference pair of the same experiment. For some assays here: For at least one entry, the source does not settle the construct or the ends of the probe.", "data": [{"target": "Factor XI (FXI zymogen) (UniProt P03951)", "test": "inhibition of the protein", "settings": "10 uM; thrombin activation of FXI with dextran sulphate unaffected; purified native protein; single-stranded DNA", "values": [{"sequence": "GAATTCTAATACGACTCACTATAAACCTATCGGACTATTGTTAGTGATTTTTATAGTGTGCGTCCAACACATCG [FELIAP (Apt10-10)]", "functional effect of the aptamer": "not active"}]}, {"tested_on": "Factor XIa (FXIa)", "test": "inhibition of the protein", "settings": "S2366 amidolysis, slightly active; described as barely detectable affinity; purified native protein; single-stranded DNA; dose not given here", "values": [{"sequence": "GAATTCTAATACGACTCACTATATGTCACTCTGATCAAAAATTTTGTAGTCATCTTGTTATGCGCGTCCAACACATCG [APT10_E]", "functional effect of the aptamer": "less active"}]}, {"tested_on": "Factor XIa (FXIa)", "test": "inhibition of the protein", "settings": "S2366 amidolysis, slightly active; purified native protein; single-stranded DNA; dose not given here", "values": [{"sequence": "GAATTCTAATACGACTCACTATATACGTGGTTCTTTTTTTAGGGAGTTCGATCCTGAGGCCTGCGTCCAACACATCG [NRMAPT 1]", "functional effect of the aptamer": "less active"}]}, {"tested_on": "Factor XIa (FXIa)", "test": "inhibition of the protein", "settings": "S2366 amidolysis, slightly active; purified native protein; single-stranded DNA; variant of FELIAP (Apt10-10); dose not given here", "values": [{"sequence": "GAATTCTAATACGACTCACTATAAACCTATCGGACTATTGTTAGTGATTTTTAGAGTGGCGTCCAACACATCG [APT10_D]", "functional effect of the aptamer": "less active"}]}, {"tested_on": "Factor XIa (FXIa)", "test": "inhibition of the protein", "settings": "S2366 amidolysis; equivalent to SCRAPT; purified native protein; single-stranded DNA; variant of FELIAP (Apt10-10); dose not given here", "values": [{"sequence": "TAAACCTATCGGACTATTGTTAGTGATTTTTA [FELIAP_32]", "functional effect of the aptamer": "not active"}]}, {"tested_on": "Factor XIa (FXIa)", "test": "inhibition of the protein", "settings": "S2366 amidolysis; purified native protein; single-stranded DNA; dose not given here", "values": [{"sequence": "GAATTCTAATACGACTCACTATAAACACACAAACCTATTTTTCGATTTTCCTGCCATCACTCCGCGTCCAACACATCG [NRMAPT20]", "functional effect of the aptamer": "not active"}, {"sequence": "GAATTCTAATACGACTCACTATACACAAAAACTATATACCTGGTTCTTTTTTTAGTTTTTCGTGCGTCCAACACATCG [NRMAPT19]", "functional effect of the aptamer": "not active"}, {"sequence": "GAATTCTAATACGACTCACTATACACGTGGTTCTTTATTTAGTTATGTCGTCGTTTTTTCATGCGTCCAACACATCG [NRMAPT15]", "functional effect of the aptamer": "not active"}, {"sequence": "GAATTCTAATACGACTCACTATACACTGCGTCCAACACATCGTATTCATGCGTCCAACACATCG [Apt10-2]", "functional effect of the aptamer": "not active"}, {"sequence": "GAATTCTAATACGACTCACTATACATAAAAACTATATACGTGGTTCTTTTTTTAGTTTTTCGTGCGTCCAACACATCG [NRMAPT 3]", "functional effect of the aptamer": "not active"}, {"sequence": "GAATTCTAATACGACTCACTATACATAAAAACTATATACGTGGTTCTTTTTTTAGTTTTTCTTGCGTCCAACACATCG [NRMAPT11]", "functional effect of the aptamer": "not active"}, {"sequence": "GAATTCTAATACGACTCACTATACATAAAAACTATATACGTTGTTCTTTTTTTAGTTTTTCGTGCGTCCAACACATCG [NRMAPT21]", "functional effect of the aptamer": "not active"}, {"sequence": "GAATTCTAATACGACTCACTATACATAAAAACTATATACTTGGTTCTTTTTTTAGTTTTTCGTGCGTCCAACACATCG [NRMAPT18]", "functional effect of the aptamer": "not active"}, {"sequence": "GAATTCTAATACGACTCACTATAGCGTATACGTGGTTCTTTTTTCGCAGGATAGTATGTATTTGCGTCCAACACATCG [NRMAPT 6]", "functional effect of the aptamer": "not active"}, {"sequence": "GAATTCTAATACGACTCACTATAGCGTCCAACACATCGTATTCATGCGTCCAACACATCG [Apt10-1 (Apt4-1)]", "functional effect of the aptamer": "not active"}, {"sequence": "GAATTCTAATACGACTCACTATAGGGAGGGCGTGGATGGCTGGTGTGAGGTCTTGTGTTTGTTGCGTCCAACACATCG [Apt10-8 (Apt4-3)]", "functional effect of the aptamer": "not active"}, {"sequence": "GAATTCTAATACGACTCACTATAGGGAGGGCGTGGATGGCTGTTGTGAGGTCTTGTGTTTGTTGCGTCCAACACATCG [Apt10-5]", "functional effect of the aptamer": "not active"}, {"sequence": "GAATTCTAATACGACTCACTATATGGGATGGCGTGGGAGGGCTGTAGGGAGCGTTCAGTGGGTGCGTCCAACACATCG [Apt10-3 (Apt4-2)]", "functional effect of the aptamer": "not active"}, {"sequence": "GAATTCTAATACGACTCACTATATGGGATGGCGTGGGAGGGCTGTAGGGAGCGTTTAGTGGGTGCGTCCAACACATCG [Apt10-6]", "functional effect of the aptamer": "not active"}, {"sequence": "GAATTCTAATACGACTCACTATATGGGATGGCGTGGGAGGGCTGTAGTGAGCGTTCAGTGGGTGCGTCCAACACATCG [Apt10-4 (Apt4-7)]", "functional effect of the aptamer": "not active"}, {"sequence": "GAATTCTAATACGACTCACTATATGGGATGGCGTGGGAGGGCTGTAGTGAGCGTTCATTGGGTGCGTCCAACACATCG [Apt10-7]", "functional effect of the aptamer": "not active"}, {"sequence": "GAATTCTAATACGACTCACTATATGGGATGGCGTGGGAGGGCTGTAGTGAGCGTTTAGTGGGTGCGTCCAACACATCG [Apt10-9]", "functional effect of the aptamer": "not active"}]}, {"tested_on": "Factor XIa (FXIa)", "test": "inhibition of the protein", "settings": "S2366 amidolysis; purified native protein; single-stranded DNA; variant of FELIAP (Apt10-10); dose not given here", "values": [{"sequence": "GAATTCTAATACGACTCACTATAAACCTATCGGACTATTGTCAGTGATTTTTATAGTGTGCGTCCAACACATCG [NRMAPT17]", "functional effect of the aptamer": "not active"}, {"sequence": "GAATTCTAATACGACTCACTATAAACCTATCGGACTATTGTTAGTGATTTTTATAGTTTGCGTCCAACACATCG [APT10_A]", "functional effect of the aptamer": "active"}, {"sequence": "GAATTCTAATACGACTCACTATAAACCTATCGGACTATTGTTAGTGATTTTTATATTGTGCGTCCAACACATCG [APT10_B]", "functional effect of the aptamer": "active"}, {"sequence": "GAATTCTAATACGACTCACTATAAACCTATCGGACTATTGTTAGTTATTTTTATAGTGTGCGTCCAACACATCG [NRMAPT16]", "functional effect of the aptamer": "not active"}, {"sequence": "GAATTCTAATACGACTCACTATAAACCTATCGGACTATTGTTATTGATTTTTATAGTGTGCGTCCAACACATCG [NRMAPT10]", "functional effect of the aptamer": "not active"}, {"sequence": "GAATTCTAATACGACTCACTATAAACCTATCGTACTATTGTTAGTGATTTTTATAGTGTGCGTCCAACACATCG [NRMAPT 7]", "functional effect of the aptamer": "not active"}, {"sequence": "GAATTCTAATACGACTCACTATAAACCTATCTGACTATTGTTAGTGATTTTTATAGTGTGCGTCCAACACATCG [NRMAPT 9]", "functional effect of the aptamer": "not active"}, {"sequence": "GAATTCTAATACGACTCACTATAAACCTATTGGACTATTGTTAGTGATTTTTATAGTGTGCGTCCAACACATCG [NRMAPT14]", "functional effect of the aptamer": "not active"}]}, {"tested_on": "Factor XIa (FXIa)", "test": "inhibition of the protein", "settings": "S2366 amidolysis; retains all anti-FXIa activity; purified native protein; single-stranded DNA; variant of FELIAP (Apt10-10); dose not given here", "values": [{"sequence": "CTATAAACCTATCGGACTATTGTTAGTGATTTTTATAG [FELIAP_38]", "functional effect of the aptamer": "active"}]}, {"tested_on": "Factor XIa (FXIa)", "test": "inhibition of the protein", "settings": "highest inhibition of S2366 amidolysis; purified native protein; single-stranded DNA; dose not given here", "values": [{"sequence": "GAATTCTAATACGACTCACTATAAACCTATCGGACTATTGTTAGTGATTTTTATAGTGTGCGTCCAACACATCG [FELIAP (Apt10-10)]", "functional effect of the aptamer": "active"}]}]}
